## Results of single-concentration screens

Measurements from “University of Dundee, Small-Polar-MMV Screening Library” (2021), ChEMBL document CHEMBL3988442.

A: 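Growth of Mycobacterium tuberculosis over 4 days (cholesterol / DPPC medium with tyloxapol); the read-out is not stated. Compounds at 50 µM. Direction is inferred from retests: higher values go with more growth inhibition. Of about 69,000 compounds tested this way, about 370 (0.54%) reached 50% or more in at least one test.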
B: 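Growth of Mycobacterium tuberculosis over 3 days (7H9 medium with glucose and tyloxapol); the read-out is not stated. Compounds at 50 µM. Direction is inferred from retests: higher values go with more growth inhibition. About 69,000 compounds were tested under these conditions; 1.1% (about 760) showed 50% or more at least once.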

The filed quantity is “Percent Effect” (%). The record does not define 0% and 100%; most values in the screen are far below 50% and negative numbers occur (in some assays of this library far below -100). Compounds were drawn at random from those tested, without regard to their results. Two or more numbers in one place are separate tests of the same structure; such repeats can differ widely.

compound,A,B
CC(NCc1ccc(-c2ccc(F)cc2)o1)c1nnc2n1CCC2 (configuration not stated),-0.8639,-7.944
Cc1nc(Cn2cc(I)cc(C)c2=O)oc1C,6.829,-1.966 & 5.852
CN1CCOC[C@H]1c1nc(-c2ccncc2)c[nH]1,-11.09,8.876 & 5.056
CCCc1n[nH]cc1C(=O)N1CCC(c2nccn2CCOC)CC1,-4.291,-15.79
Cc1nc(CN(C)CC(c2cccs2)N2CCOCC2)no1 (configuration not stated),4.67,-68.51 & -3.005
Cc1csc(N2CCCN(C(=O)CCNc3ncccn3)CC2)n1,-10.89,-7.156
Cc1csc(CN2CCC3(CC2)COC(COCC2CC2)C3)n1.O=C(O)C(F)(F)F (configuration not stated),-7.322,11.02
Cc1cccc(CN2CCc3ncnc(NC4CCC4)c3CC2)n1.O=C(O)C(F)(F)F.O=C(O)C(F)(F)F,12.39,-20.45
Fc1ccccc1-c1nccnc1C1CCCNC1 (configuration not stated),-9.839,-44.56
O=C(NCCCn1ccnc1)c1cccnc1OCC(F)(F)F,-31.31,-20.03
CCCC(=O)Nc1ccc(CC(=O)N(CC)CC2CCCCO2)cc1 (configuration not stated),-31.73,-18.67
O=C(NCCc1cc(N2CCOCC2)nc(NC2CC2)n1)C1CCCO1 (configuration not stated),-27.42 & 0.03644,-22.77
CCCc1cc(C(=O)N2CCC3(CCCNC3=O)C2)cs1 (configuration not stated),2.806,11.16 & 4.854
COc1ccccc1NC(=O)NCC(O)c1ccc(F)cc1F (configuration not stated),-52.93,17.35
Cc1cc(C)nc(N2CCN(C(=O)c3cc(Cl)c[nH]3)CC2)n1,-5.06,9.44
CC(=O)N(C)Cc1cccc(NC(=O)CCCc2nc(C(C)C)no2)c1,-27.67,-28.64
COCCN(CCC#N)S(=O)(=O)c1ccc(F)cc1Cl,-15.57,-14.29
OC1(CNCc2noc(Cc3ccccc3)n2)CNCCOC1 (configuration not stated),10.56,9.212
COc1ccc(F)cc1C(C)NC(=O)Nc1nncs1 (configuration not stated),1.15,-41.55 & -5.219
[H][C@@]12CN(CCN(C)C)C[C@]1([H])OCCN2Cc1cnn(C)c1,-4.303 & -11.37,-24.96 & -0.8904
CN(C)S(=O)(=O)N1CCN(c2ccnc(N3CCCC3)n2)CC1,14.35,4.717
Cl.Cl.O=c1[nH]c2ncccc2n1C1CCNCC1,-26.45,-2.127 & -0.6166
Cc1ccc(-c2nnc(SCC(=O)O)n2-c2ccc(C)cc2)cc1,-11.08,33.52
Cn1cnc2c1C(COCc1cccnc1)N(Cc1ccccc1)CC2 (configuration not stated),3.66,-1.746 & 14.95
O=C(CCNC(=O)C1=Cc2ccccc2OC1)NCc1ccncc1,-8.894,13.59 & -4.247
CCCc1nnc(N2CCC(N3CCN(CCO)CC3)CC2)o1,-4.033,-2.534 & -12.28
CC(C)c1ncc(CN2C[C@@H](CN3CCCN(C)CC3)[C@@H](CO)C2)cn1,-26.44,-16.06
COCCNC1(c2ccc(Cl)cc2)CCOCC1,-4.785,-31.01
c1csc(N2CCN(Cc3nnnn3C3CC3)CC2)n1,30.49,-1.668 & -4.194
Cc1cc(C(=O)NC(C)Cc2ccccc2Cl)n(C)n1 (configuration not stated),24.83,39.69
CC(NC(=O)CSCC(N)=O)c1ccccc1Oc1ccccc1 (configuration not stated),-24.29,-19.45
O=C1NCC(C(=O)Nc2ncc(Cc3cccc(F)c3)s2)N1 (configuration not stated),20.04,18.17
CN(Cc1cc(Cl)ccc1Cl)Cc1ncnn1C,10.43,33.53
Cc1ccc(S(=O)(=O)NC(C)C#N)cc1Br (configuration not stated),14.15,10.34
CCc1c(O)nc(SC(C)CC)n(-c2ccccc2)c1=O (configuration not stated),22.89,-4.601
CC(C)(C)CC(=O)Nc1ccc(S(C)(=O)=O)nc1,-6.762,-7.527
CCc1nc2n(n1)CC(NCc1cc(OC)c3c(c1)OCO3)CC2 (configuration not stated),-19.36,-8.638
O=c1cc(CN(Cc2ccco2)C2CC2)nc2ccc(Br)cn12,17.43 & 14.44,24.71
CC1CCN(CCCNS(=O)(=O)c2cc(F)cc(F)c2)CC1.Cl,-38.01,-6.645 & -61.56
CC(C)c1nc(C2CCCNC2)no1.Cl (configuration not stated),-5.257 & 0.9737,8.572
CCn1nc(C)c(CCNC(=O)C2CCCN(C(=O)COC)C2)c1C (configuration not stated),-40.57,-35.66
Cc1ncc(-c2ccnc(N3CCC[C@@H]3CO)n2)c(-c2cccnc2)n1,-3.037,13.66
COC(=O)c1cccc(NC(=O)CN2CCN(S(C)(=O)=O)CC2)c1,-1.539,15.82
NC(=O)N1CCCC(C(=O)NCCOc2ccc(F)c(F)c2)C1 (configuration not stated),-4.702,4.731 & 12.01
CNC(=O)Cc1ccc(NC(=O)NC(C)C(C)C)cc1 (configuration not stated),-8.393,-1.162 & 8.507
CC(C)n1cnnc1CNC(=O)CCCOc1ccccc1F,-20.31,-34.17 & 6.987
COCCC(=O)N1CCCC1c1csc(Nc2ccccn2)n1 (configuration not stated),-32.61,-42.36
CC(C)NC(=O)CNC(=O)C12CCC(=O)N1c1cc(Cl)ccc1S2 (configuration not stated),-22.8,-28.21
O=C(NCc1cccnc1)C1CC(=O)N(CC2CC2)C1 (configuration not stated),1.937,15.17
CCN(Cc1ccncc1)C(=O)CCn1c(C)cc2ccccc21,9.669,18.65
N[C@H]1CN(C(=O)CCCc2ccc(F)cc2)C[C@@H]1C1CC1,-4.559,0.5785
CN(CCc1cccc2ccccc12)Cc1nc(N)nc(N(C)C)n1,-2.475,2.397
CN(CC(=O)NS(=O)(=O)c1ccc(F)cc1)Cc1ccccc1,-1.834,34.72 & -0.7916
CCOC(C)c1nccn1CCC(=O)Nc1cc(C)on1 (configuration not stated),10.49,-5.018 & -4.184
COc1ncccc1C(=O)N1CCCC1c1nc(-c2ccccc2)n[nH]1 (configuration not stated),2.631,36.81
CC(C(=O)NC1CC1)S(=O)(=O)Cc1nc(Cc2ccccc2)no1 (configuration not stated),-3.368,17.68
CCN(Cc1nccn1C)C(=O)c1ccc(NCC(C)C)nc1,4.28,-2.075 & 23.14
CC(C)NC(=O)N1CC(=O)c2sc(Nc3ccc(C#N)cc3)nc2C1,-12.34,15.56
COC(=O)CNC(=O)Cn1ccc2ccc(F)cc21,-13.4,6.43 & 20.18
CN(Cc1cn2c(n1)CN(C(N)=O)CC2)Cc1ccco1,-9.211 & -6.849,5.463 & 21.03
Cc1cnc2n(c1=O)CC(C(=O)Nc1ccon1)CS2 (configuration not stated),6.569,21.98
Cc1nc(C(C)NC(=O)c2cn(CCC3CCCCC3)nn2)n[nH]1 (configuration not stated),-11.32,-0.3959 & 3.833
[H][C@@]12C[C@@H](c3nnc(C4CC4)o3)O[C@]1([H])CN(C(=O)c1ccc(C)s1)C2,17.38,27.59 & -2.578
Cn1cc(-c2cc(C(F)F)n3nc(CCC(=O)O)nc3n2)cn1,1.415,15.53
CN(C)C(=O)CC1CC2(CCN(Cc3ccsc3)CC2)c2ccccc21.O=C(O)C(F)(F)F (configuration not stated),-8.895,13.12
COc1cccc2c1OCC(CNC(=O)CN(C)C1CCCC1)C2 (configuration not stated),0.3541 & -6.289,-11.98 & -1.845
CCOc1ccc(C#N)cc1NCC(=O)NC(=O)Nc1ccccc1,-6.147,11.11 & 4.944
CC(=O)N[C@H](C)c1c(-c2ccc(Cl)cc2)noc1C(=O)O,31.68,-1.337 & 15.47
Cc1nccnc1CCC1COCCN1C(=O)CCc1c(C)noc1C (configuration not stated),-2.19,-8.179
Cc1nc(C)c(C(=O)N2Cc3ccccc3OCC2Cn2ccnc2)s1 (configuration not stated),13.36,25.5
Cn1ccnc1CN1CCN(c2ncnc3ccsc23)CC1,-7.716,21.55
CCC1=NN2C(=N)/C(=C\c3cccn3-c3cccc(Cl)c3)C(=O)N=C2S1,-5.597,-30
Cc1cc(NC(=O)N2CCCC2C(=O)NC2CC2)c2ncccc2c1 (configuration not stated),7.442,10.15
CN(C)c1ncc(-c2cc(C(=O)NCCO)n(CC3CC3)c2)cn1.O=C(O)C(F)(F)F,32.19,35.04
CCc1ncncc1C(=O)N1CCN(Cc2c(C)noc2C)CC1,8.538,10.95
Cc1cc(C(C)(O)CNC(=O)c2ccc(Br)o2)c(C)o1 (configuration not stated),17.21,4.628 & 7.952
CCC1CN(c2ncnc3nc[nH]c23)CCO1 (configuration not stated),-25.96,19.55

Some entries from above, unchanged:

compound	A	B
CC(NC(=O)CSCC(N)=O)c1ccccc1Oc1ccccc1 (configuration not stated)	-24.29	-19.45
CN(C)S(=O)(=O)N1CCN(c2ccnc(N3CCCC3)n2)CC1	14.35	4.717
CC(C)c1nc(C2CCCNC2)no1.Cl (configuration not stated)	-5.257 & 0.9737	8.572
Cc1cc(C(=O)NC(C)Cc2ccccc2Cl)n(C)n1 (configuration not stated)	24.83	39.69
CN1CCOC[C@H]1c1nc(-c2ccncc2)c[nH]1	-11.09	8.876 & 5.056